Data: publication doi:10.1101/2022.08.16.504078
Results are given in words; binding and its absence hold for the method and conditions named. In cells and extracts the contact can be indirect. Some entries that bind do so weakly or less than the wild type.

Amino acid sequences for entries named in this document (tags omitted). Residues count along the entry.
UniProt P17301, residues 30-1181: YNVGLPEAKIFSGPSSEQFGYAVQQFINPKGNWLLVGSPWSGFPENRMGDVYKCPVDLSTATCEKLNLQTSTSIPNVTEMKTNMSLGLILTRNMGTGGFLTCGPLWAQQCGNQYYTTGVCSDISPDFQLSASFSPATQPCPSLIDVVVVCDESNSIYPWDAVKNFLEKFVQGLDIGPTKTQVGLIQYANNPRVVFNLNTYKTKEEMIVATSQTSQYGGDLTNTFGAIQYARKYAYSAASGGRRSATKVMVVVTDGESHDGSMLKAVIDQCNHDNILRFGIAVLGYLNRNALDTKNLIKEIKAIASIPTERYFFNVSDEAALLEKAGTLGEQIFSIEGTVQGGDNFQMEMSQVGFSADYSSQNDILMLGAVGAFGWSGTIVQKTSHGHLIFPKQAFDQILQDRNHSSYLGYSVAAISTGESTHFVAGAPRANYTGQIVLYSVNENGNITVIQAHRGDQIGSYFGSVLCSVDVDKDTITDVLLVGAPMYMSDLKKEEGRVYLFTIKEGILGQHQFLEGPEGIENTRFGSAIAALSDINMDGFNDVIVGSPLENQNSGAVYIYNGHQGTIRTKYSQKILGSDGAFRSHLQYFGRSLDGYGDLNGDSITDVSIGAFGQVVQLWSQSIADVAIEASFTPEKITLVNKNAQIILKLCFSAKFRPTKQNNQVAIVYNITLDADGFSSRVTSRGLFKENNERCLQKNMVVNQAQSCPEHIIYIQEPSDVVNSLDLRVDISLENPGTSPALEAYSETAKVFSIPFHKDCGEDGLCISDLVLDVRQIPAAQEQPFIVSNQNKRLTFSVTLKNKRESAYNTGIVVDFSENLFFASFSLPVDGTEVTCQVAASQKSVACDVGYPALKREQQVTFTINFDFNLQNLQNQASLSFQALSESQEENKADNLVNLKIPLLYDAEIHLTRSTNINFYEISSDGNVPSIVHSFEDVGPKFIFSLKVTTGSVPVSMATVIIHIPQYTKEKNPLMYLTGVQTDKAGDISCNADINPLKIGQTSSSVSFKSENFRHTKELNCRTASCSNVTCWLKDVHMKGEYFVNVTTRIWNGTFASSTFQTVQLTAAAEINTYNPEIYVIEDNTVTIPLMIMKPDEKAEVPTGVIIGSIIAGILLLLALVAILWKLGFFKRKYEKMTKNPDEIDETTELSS
UniProt P18564, residues 22-788: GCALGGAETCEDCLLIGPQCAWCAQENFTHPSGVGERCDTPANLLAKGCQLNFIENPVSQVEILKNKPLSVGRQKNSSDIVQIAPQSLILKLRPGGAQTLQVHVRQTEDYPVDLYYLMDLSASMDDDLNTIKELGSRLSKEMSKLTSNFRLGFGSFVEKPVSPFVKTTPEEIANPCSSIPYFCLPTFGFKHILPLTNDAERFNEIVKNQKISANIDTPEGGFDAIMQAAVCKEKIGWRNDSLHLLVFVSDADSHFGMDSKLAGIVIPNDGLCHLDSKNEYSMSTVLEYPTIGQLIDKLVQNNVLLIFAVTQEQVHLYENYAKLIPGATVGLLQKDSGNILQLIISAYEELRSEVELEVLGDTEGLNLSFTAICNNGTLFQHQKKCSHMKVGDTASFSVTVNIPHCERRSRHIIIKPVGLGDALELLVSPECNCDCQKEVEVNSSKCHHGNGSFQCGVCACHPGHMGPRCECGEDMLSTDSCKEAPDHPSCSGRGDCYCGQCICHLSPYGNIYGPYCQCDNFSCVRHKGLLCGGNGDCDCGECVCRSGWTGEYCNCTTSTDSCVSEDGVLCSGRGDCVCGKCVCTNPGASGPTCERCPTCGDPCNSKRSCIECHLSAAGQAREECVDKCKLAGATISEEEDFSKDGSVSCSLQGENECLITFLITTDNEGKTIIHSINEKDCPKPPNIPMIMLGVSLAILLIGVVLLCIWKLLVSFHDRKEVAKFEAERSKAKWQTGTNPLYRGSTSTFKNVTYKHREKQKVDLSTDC
UniProt P05107, residues 23-769: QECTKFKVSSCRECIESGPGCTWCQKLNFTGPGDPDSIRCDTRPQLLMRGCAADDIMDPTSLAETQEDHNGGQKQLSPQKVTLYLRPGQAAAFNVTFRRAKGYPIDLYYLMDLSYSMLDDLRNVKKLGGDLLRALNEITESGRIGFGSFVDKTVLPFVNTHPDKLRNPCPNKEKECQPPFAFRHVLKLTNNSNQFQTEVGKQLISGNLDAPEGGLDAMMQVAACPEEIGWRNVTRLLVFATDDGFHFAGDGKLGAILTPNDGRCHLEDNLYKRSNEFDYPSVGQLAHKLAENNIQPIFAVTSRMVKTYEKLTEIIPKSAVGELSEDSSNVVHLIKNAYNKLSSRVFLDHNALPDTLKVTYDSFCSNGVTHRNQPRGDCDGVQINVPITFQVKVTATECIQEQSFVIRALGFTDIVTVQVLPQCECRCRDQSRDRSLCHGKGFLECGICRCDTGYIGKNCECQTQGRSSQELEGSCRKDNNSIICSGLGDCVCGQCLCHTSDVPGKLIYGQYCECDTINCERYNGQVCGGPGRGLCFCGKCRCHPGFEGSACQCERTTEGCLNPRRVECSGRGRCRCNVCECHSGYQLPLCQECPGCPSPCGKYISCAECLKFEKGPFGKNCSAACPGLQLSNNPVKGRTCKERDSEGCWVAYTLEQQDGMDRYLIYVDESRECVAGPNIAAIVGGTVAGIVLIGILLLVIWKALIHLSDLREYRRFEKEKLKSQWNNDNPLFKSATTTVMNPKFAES

Assays:
[1] = target: ITGA2-HIS (integrin alpha subunit ITGA2 with HIS tag) (human) (UniProt P17301); assay: co-IP
[2] = target: endogenous ITGB6 (human (endogenous in A549)) (UniProt P18564); assay: co-IP

Row | Substance | binding [1] | binding [2]
1 | ITGB2-YFP (integrin beta subunit ITGB2 with YFP) (from UniProt P05107 23-769) | binds | –
2 | ITGB6-GFP (integrin beta subunit ITGB6 with GFP) (from UniProt P18564 22-788) | binds | –
3 | endogenous non-phosphorylated EGF receptor (EGFR) (from UniProt P00533 25-1210) | – | binds
